# According to PMC10689078:
# For at least one entry, the source does not settle the construct or the ends of the probe. A negative result means that nothing was seen under these conditions.
# Columns and labels:
# [1] = tested on: MBP-CaHY5 (Capsicum annuum L.); test: EMSA; conditions: EMSA: 2 ug protein in 20 uL, 30 min at 25 C, 12% native PAGE, salt and pH not stated, recombinant protein, protein details: N-terminal MBP (pMAL-c4X)
# MBP = test: EMSA; conditions: EMSA: 2 ug protein in 20 uL, 30 min at 25 C, 12% native PAGE; salt and pH not stated; recombinant protein; protein details: MBP alone (empty pMAL-c4X vector)
Sequence,binding result ([1]; repressed by competitor),binding result [1],binding result (MBP)
GGCATCAACAATTGCACTAAATGGACATGTTAATGGGGATGTTGTAGCCAG (double strand) [CaPAL7 promoter WT probe (E-box)],binds,,
GGCATCAACTTTTGCACTAAATGGACATGTTAATGGGGATGTTGTAGCCAG (double strand) [CaPAL7 promoter Mut probe],,no binding,
CGTTGGATTGCACATGGGGAATCGACGATTGCGGTTGGTGACTTTTGGTAAACATGAAAG (double strand) [CaPAL3 promoter Mut probe],,no binding,
CGTTGGATTGCACATGGGGAATCGACGATTGCGGTTGGTGACACGTGGTAAACATGAAAG (double strand) [CaPAL3 promoter WT probe (G-box)],binds,,no binding
